{"source": "the supplement of paper PMC8728848", "binders": {"B1": {"name": "SHCBP1-GST (Homo sapiens), Q8NEM2 (protein)", "chain": "MADGSLTGGGLEAAAMAPERMGWAVEQELASLEKGLFQDEDSCSDCSYRDKPGSSLQSFMPEGKTFFPEIFQTNQLLFYERFRAYQDYILADCKASEVQEFTAEFLEKVLEPSGWRAVWHTNVFKVLVEITDVDFAALKAVVRLAEPYLCDSQVSTFTMECMKELLDLKEHRLPLQELWVVFDDSGVFDQTALAIEHVRFFYQNIWRSWDEEEEDEYDYFVRCVEPRLRLHYDILEDRVPSGLIVDYHNLLSQCEESYRKFLNLRSSLSNCNSDSEQENISMVEGLKLYSEMEQLKQKLKLIENPLLRYVFGYQKNSNIQAKGVRSSGQKITHVVSSTMMAGLLRSLLTDRLCQEPGEEEREIQFHSDPLSAINACFEGDTVIVCPGHYVVHGTFSIADSIELEGYGLPDDIVIEKRGKGDTFVDCTGADIKISGIKFVQHDAVEGILIVHRGKTTLENCVLQCETTGVTVRTSAEFLMKNSDLYGAKGAGIEIYPGSQCTLSDNGIHHCKEGILIKDFLDEHYDIPKISMVNNIIHNNEGYGVVLVKPTIFSDLQENAEDGTEENKALKIQTSGEPDVAERVDLEELIECATGKMELCARTDPSEQVEGNCEIVNELIAASTQKGQIKKKRLSELGITQADDNLMSQEMFVGIVGNQFKWNGKGSFGTFLF"}}, "assay_in_all_cases": "glycan array binding signal (z-score within array); higher = stronger binding", "conditions_in_all_cases": "glycan notation: IUPAC condensed, linker removed", "key": {"[1]": {"target": "Neu5Ac(a2-6)Gal(b1-3)GlcNAc(b1-3)[Gal(b1-4)GlcNAc(b1-6)]Gal(b1-4)Glc", "method_in_brief": "(§1)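 Arrays were curated from the Consortium for Functional Glycomics database, 3228 in total, and kept only where the protein sequence was available. Binding is expressed as a within-array Z-score. This score was averaged across arrays of the same protein sequence at different concentrations or buffers and across linkers, and negative values can be read as non-binding.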"}, "Neu5Ac(a2-6)Gal(b1-4)Glc": {"target": "Neu5Ac(a2-6)Gal(b1-4)Glc", "method_in_brief": "as §1"}, "[2]": {"target": "Neu5Ac(a2-6)Gal(b1-4)GlcNAc", "method_in_brief": "as §1"}, "[3]": {"target": "Neu5Ac(a2-6)Gal(b1-4)GlcNAc(b1-2)Man", "method_in_brief": "as §1"}, "[4]": {"target": "Neu5Ac(a2-6)Gal(b1-4)GlcNAc(b1-2)Man(a1-3)Man(b1-4)GlcNAc(b1-4)GlcNAc", "method_in_brief": "as §1"}, "[5]": {"target": "Neu5Ac(a2-6)Gal(b1-4)GlcNAc(b1-2)Man(a1-3)[Gal(b1-4)GlcNAc(b1-2)Man(a1-6)]Man(b1-4)GlcNAc(b1-4)GlcNAc", "method_in_brief": "as §1"}, "[6]": {"target": "Neu5Ac(a2-6)Gal(b1-4)GlcNAc(b1-2)Man(a1-3)[GlcNAc(b1-2)Man(a1-6)]Man(b1-4)GlcNAc(b1-4)GlcNAc", "method_in_brief": "as §1"}, "[7]": {"target": "Neu5Ac(a2-6)Gal(b1-4)GlcNAc(b1-2)Man(a1-3)[GlcNAc(b1-4)][Neu5Ac(a2-6)Gal(b1-4)GlcNAc(b1-2)Man(a1-6)]Man(b1-4)GlcNAc(b1-4)GlcNAc", "method_in_brief": "as §1"}, "[8]": {"target": "Neu5Ac(a2-6)Gal(b1-4)GlcNAc(b1-2)Man(a1-3)[Man(a1-6)]Man(b1-4)GlcNAc(b1-4)GlcNAc", "method_in_brief": "as §1"}, "[9]": {"target": "Neu5Ac(a2-6)Gal(b1-4)GlcNAc(b1-2)Man(a1-3)[Neu5Ac(a2-3)Gal(b1-4)GlcNAc(b1-2)Man(a1-6)]Man(b1-4)GlcNAc(b1-4)GlcNAc", "method_in_brief": "as §1"}, "[10]": {"target": "Neu5Ac(a2-6)Gal(b1-4)GlcNAc(b1-2)Man(a1-3)[Neu5Ac(a2-6)Gal(b1-4)GlcNAc(b1-2)Man(a1-6)]Man(b1-4)GlcNAc(b1-4)GlcNAc", "method_in_brief": "as §1"}, "[11]": {"target": "Neu5Ac(a2-6)Gal(b1-4)GlcNAc(b1-2)Man(a1-3)[Neu5Ac(a2-6)Gal(b1-4)GlcNAc(b1-2)Man(a1-6)]Man(b1-4)GlcNAc(b1-4)[Fuc(a1-6)]GlcNAc", "method_in_brief": "as §1"}, "[12]": {"target": "Neu5Ac(a2-6)Gal(b1-4)GlcNAc(b1-2)Man(a1-6)Man(b1-4)GlcNAc(b1-4)GlcNAc", "method_in_brief": "as §1"}, "[13]": {"target": "Neu5Ac(a2-6)Gal(b1-4)GlcNAc(b1-2)Man(a1-6)[Gal(b1-4)GlcNAc(b1-2)Man(a1-3)]Man(b1-4)GlcNAc(b1-4)GlcNAc", "method_in_brief": "as §1"}, "[14]": {"target": "Neu5Ac(a2-6)Gal(b1-4)GlcNAc(b1-2)Man(a1-6)[GlcNAc(b1-2)Man(a1-3)]Man(b1-4)GlcNAc(b1-4)GlcNAc", "method_in_brief": "as §1"}, "[15]": {"target": "Neu5Ac(a2-6)Gal(b1-4)GlcNAc(b1-2)Man(a1-6)[Man(a1-3)]Man(b1-4)GlcNAc(b1-4)GlcNAc", "method_in_brief": "as §1"}, "[16]": {"target": "Neu5Ac(a2-6)Gal(b1-4)GlcNAc(b1-2)[Neu5Ac(a2-6)Gal(b1-4)GlcNAc(b1-4)]Man(a1-3)[GlcNAc(b1-4)][Neu5Ac(a2-6)Gal(b1-4)GlcNAc(b1-2)[Neu5Ac(a2-6)Gal(b1-4)GlcNAc(b1-6)]Man(a1-6)]Man(b1-4)GlcNAc(b1-4)GlcNAc", "method_in_brief": "as §1"}, "[17]": {"target": "Neu5Ac(a2-6)Gal(b1-4)GlcNAc(b1-2)[Neu5Ac(a2-6)Gal(b1-4)GlcNAc(b1-4)]Man(a1-3)[GlcNAc(b1-4)][Neu5Ac(a2-6)Gal(b1-4)GlcNAc(b1-4)Man(a1-6)]Man(b1-4)GlcNAc(b1-4)GlcNAc", "method_in_brief": "as §1"}, "[18]": {"target": "Neu5Ac(a2-6)Gal(b1-4)GlcNAc(b1-2)[Neu5Ac(a2-6)Gal(b1-4)GlcNAc(b1-6)]Man(a1-6)[Neu5Ac(a2-6)Gal(b1-4)GlcNAc(b1-2)Man(a1-3)][GlcNAc(b1-4)]Man(b1-4)GlcNAc(b1-4)GlcNAc", "method_in_brief": "as §1"}, "[19]": {"target": "Neu5Ac(a2-6)Gal(b1-4)GlcNAc(b1-3)Gal(b1-3)GlcNAc", "method_in_brief": "as §1"}, "[20]": {"target": "Neu5Ac(a2-6)Gal(b1-4)GlcNAc(b1-3)Gal(b1-4)GlcNAc", "method_in_brief": "as §1"}, "[21]": {"target": "Neu5Ac(a2-6)Gal(b1-4)GlcNAc(b1-3)Gal(b1-4)GlcNAc(b1-2)Man(a1-3)[Neu5Ac(a2-6)Gal(b1-4)GlcNAc(b1-3)Gal(b1-4)GlcNAc(b1-2)Man(a1-6)]GalNAc", "method_in_brief": "as §1"}, "[22]": {"target": "Neu5Ac(a2-6)Gal(b1-4)GlcNAc(b1-3)Gal(b1-4)GlcNAc(b1-3)Gal(b1-4)GlcNAc", "method_in_brief": "as §1"}}, "note": "The list shows a part of the results."}
{"binder": "B1", "values": [{"measurement": "glycan array binding signal (z-score)", "setting": "[1]", "value": -0.691}, {"measurement": "glycan array binding signal (z-score)", "setting": "Neu5Ac(a2-6)Gal(b1-4)Glc", "value": -0.263}, {"measurement": "glycan array binding signal (z-score)", "setting": "[2]", "value": -0.229}, {"measurement": "glycan array binding signal (z-score)", "setting": "[3]", "value": -0.388}, {"measurement": "glycan array binding signal (z-score)", "setting": "[4]", "value": -0.066}, {"measurement": "glycan array binding signal (z-score)", "setting": "[5]", "value": 0.542}, {"measurement": "glycan array binding signal (z-score)", "setting": "[6]", "value": -0.864}, {"measurement": "glycan array binding signal (z-score)", "setting": "[7]", "value": -0.538}, {"measurement": "glycan array binding signal (z-score)", "setting": "[8]", "value": -0.577}, {"measurement": "glycan array binding signal (z-score)", "setting": "[9]", "value": 0.084}, {"measurement": "glycan array binding signal (z-score)", "setting": "[10]", "value": 0.513}, {"measurement": "glycan array binding signal (z-score)", "setting": "[11]", "value": -0.177}, {"measurement": "glycan array binding signal (z-score)", "setting": "[12]", "value": -0.206}, {"measurement": "glycan array binding signal (z-score)", "setting": "[13]", "value": -0.587}, {"measurement": "glycan array binding signal (z-score)", "setting": "[14]", "value": -0.168}, {"measurement": "glycan array binding signal (z-score)", "setting": "[15]", "value": 0.205}, {"measurement": "glycan array binding signal (z-score)", "setting": "[16]", "value": -0.645}, {"measurement": "glycan array binding signal (z-score)", "setting": "[17]", "value": -0.458}, {"measurement": "glycan array binding signal (z-score)", "setting": "[18]", "value": -0.249}, {"measurement": "glycan array binding signal (z-score)", "setting": "[19]", "value": -0.24}, {"measurement": "glycan array binding signal (z-score)", "setting": "[20]", "value": -1.12}, {"measurement": "glycan array binding signal (z-score)", "setting": "[21]", "value": 0.908}, {"measurement": "glycan array binding signal (z-score)", "setting": "[22]", "value": 0.126}]}
